Test results taken from patent US20090311237A1, “Combination therapy using a soluble hyaluronidase and a bisphosphonate” (priority 2008, published 2009).
Several values for one entry are separate records, joined by “and”; a condition that tells them apart may be missing. Equal entries are not always repeated. Further values from the same series stand in other lists.

Assay: Phase 1 Stage 1 clinical pharmacokinetics of SC ZA co-administered with rHuPH20
Assay type: in vivo, human
Settings: serum, individual subjects, listed as Zoledronic Acid
Experimental: A pharmacokinetic study of zoledronic acid (ZA) co-administered with rHuPH20 in human subjects was conducted. The primary objective of the study was to determine the bioavailability of zoledronic acid dosed via subcutaneous (SC) co-administration with human recombinant hyaluronidase PH20 (rHuPH20). […] The patients were administered the prescribed dosage formulations as follows: Cohorts 1-5 were administered a single subcutaneous infusion in a dosage volume of 100 ml at a rate of 3 mL/min. […] The dosing solution is administered via needle or catheter into the SC space of the left anterior thigh (midway between the anterior iliac crest and the cephalad border of the patella). For cohorts 1-5, the dosing solutions were administered by a controlled rate infusion pump at approximately 3 mL/minute. […] The dosing solutions were administered by syringe push bolus injection. […] Serum concentration of ZA was determined using a qualified LC-MS-MS assay after derivatization with diazomethane (Zhu, L S et al. (2006) Rapid Commun. […] The assay range was from 2.0 to 400 ng/mL with a lower limit of quantitation (LLOQ) at 2.0 ng/mL. […] Non-compartmental analysis was used for derivation of primary and secondary pharmacokinetic (PK) parameters. […] Summary statistics (mean, standard deviation, and median) were calculated using JMP or Microsoft Excel.

For `O=P(O)(O)C(O)(Cn1ccnc1)P(=O)(O)O` [ZA, 1-hydroxy-2-(1H-imidazol-1-yl)ethylidene-1,1-bisphosphonic acid], the “Zoledronic Acid Concentration” value (ZA 0.25 mg SC infusion + 24000 Units rHuPH20, 0 h post infusion) was 5.04 ng/mL, the “Zoledronic Acid Concentration” value (ZA 0.5 mg SC infusion + 24000 Units rHuPH20, 0 h post infusion) was 11.10 ng/mL and the “Zoledronic Acid Concentration” value (ZA 0.5 mg SC infusion + 24000 Units rHuPH20, 10 min post infusion) was 13.30 ng/mL. The “Zoledronic Acid Concentration” value (ZA 0.5 mg SC infusion + 24000 Units rHuPH20, 0.5 h post infusion) was 13.00 ng/mL, the “Zoledronic Acid Concentration” value (ZA 0.5 mg SC infusion + 24000 Units rHuPH20, 1 h post infusion) was 13.70 ng/mL and the “Zoledronic Acid Concentration” value (ZA 0.5 mg SC infusion + 24000 Units rHuPH20, 2 h post infusion) was 10.60 ng/mL and 11.50 ng/mL. The “Zoledronic Acid Concentration” value (ZA 0.5 mg SC infusion + 24000 Units rHuPH20, 4 h post infusion) was 6.02 ng/mL and 5.87 ng/mL, the “Zoledronic Acid Concentration” value (ZA 0.5 mg SC infusion + 24000 Units rHuPH20, 6 h post infusion) was 3.04 ng/mL and 2.53 ng/mL and the “Zoledronic Acid Concentration” value (ZA 0.5 mg SC infusion + 24000 Units rHuPH20, 8 h post infusion) was 1.34 ng/mL and 1.42 ng/mL. For the same compound, the “Zoledronic Acid Concentration” value (ZA 0.5 mg SC infusion + 24000 Units rHuPH20, 12 h post infusion) was 0.55 ng/mL and 0.56 ng/mL, the “Zoledronic Acid Concentration” value (ZA 1 mg SC infusion + 24000 Units rHuPH20, 0 h post infusion) was 17.90 ng/mL and the “Zoledronic Acid Concentration” value (ZA 1 mg SC infusion + 24000 Units rHuPH20, 10 min post infusion) was 24.50 ng/mL. For the same compound, the “Zoledronic Acid Concentration” value (ZA 1 mg SC infusion + 24000 Units rHuPH20, 0.5 h post infusion) was 28.00 ng/mL, the “Zoledronic Acid Concentration” value (ZA 1 mg SC infusion + 24000 Units rHuPH20, 1 h post infusion) was 27.20 ng/mL and the “Zoledronic Acid Concentration” value (ZA 1 mg SC infusion + 24000 Units rHuPH20, 2 h post infusion) was 17.70 ng/mL. The “Zoledronic Acid Concentration” value (ZA 1 mg SC infusion + 24000 Units rHuPH20, 4 h post infusion) was 7.51 ng/mL, the “Zoledronic Acid Concentration” value (ZA 1 mg SC infusion + 24000 Units rHuPH20, 6 h post infusion) was 3.76 ng/mL and the “Zoledronic Acid Concentration” value (ZA 1 mg SC infusion + 24000 Units rHuPH20, 8 h post infusion) was 2.46 ng/mL. For the same compound, the “Zoledronic Acid Concentration” value (ZA 1 mg SC infusion + 24000 Units rHuPH20, 12 h post infusion) was 0.96 ng/mL and the “Zoledronic Acid Concentration” value (ZA 1 mg SC infusion + 24000 Units rHuPH20, 24 h post infusion) was 0.50 ng/mL.
